{"source": "patent US20130225508A1", "about": "“PEPTIDE CAPABLE OF BINDING TO IMMUNOGLOBULIN” (priority 2010, published 2013)", "tested_on": "adjuvant-induced arthritis", "experiment": "Adjuvant arthritis rat model", "type": "in vivo, Lewis/CrlCrlj rats", "set-up": "key to Redness scores (left hind-limb) / Redness scores (right hind-limb): 0 = no redness, 4 = severe redness; key to Scores of swelling in the instep (right hind-limb) / Scores of swelling in the instep (left hind-limb): 0 = no swelling, 4 = severe swelling; key to Scores of swelling in knuckle joints (left hind-limb) / Scores of swelling in knuckle joints (right hind-limb): 0 = no swelling, 4 = swelling of all the digits", "description": "Male Lewis/CrlCrlj (SPF) rats were used to investigate the arthritis suppressing effect of a peptide of the present invention on adjuvant-induced arthritis. Forty-five rats were purchased from Charles River Laboratories Japan, Inc., and fed normal chow and allowed to acclimate for 7 days before used (the range of body weights was from 193.3 to 218.3 g at the beginning of use).\nIn an agate motor, dead tubercle bacilli (Mycobacterium butyricum; Lot No. 0260570, Difco) were pulverized. Then, liquid paraffin was added in small amounts to spread the pulverized bacilli well, so as to allow them to be emulsified at 1.0 mg/mL. The resultant emulsion was used after verification to ensure that the pulverized bacilli had been allowed to be finely emulsified, using an NM MICRONIZER (Nippon Seiki Co., Ltd.).\nA right hind-limb of the respective rats was exposed, and 100 μL of the emulsion was intradermally injected once into a footpad of the right hind-limb using a 25G-needle attached syringe, to cause arthritis (day 0).\nEach of the groups was comprised of 5 animals.\nArthritis was evaluated only for the hind-limbs, based on the criteria described below:\nScore 0: no swelling Score 1: swelling of not more than two digits Score 2: swelling of three digits Score 3: swelling of four digits Score 4: swelling of all the digits\nScore 0: no swelling Score 1: mild swelling Score 2: modest swelling Score 3: rather severe swelling Score 4: severe swelling\nScore 0: no redness Score 1: mild redness Score 2: modest redness Score 3: rather severe redness Score 4: severe redness (iii) Measurement of Foot Volumes of Left And Right Hind-Limbs\nMeasurement was performed using a plethysmometer (UNICOM TK105). The increasing rate foot volume (percentage of paw swelling, paw swelling %) was calculated by the following formula:\nPercent paw swelling (%)=[(Vt−Vo)/Vo]×100\nIn addition, in these examinations, the percent change of edema relative to day 10 post-adjuvant was calculated, in order to assess the effect of treatment with the test substances.\nData are expressed by mean±standard error. Since the uniformity of variance was not verified in testing between the negative and the positive control groups, testing for significant difference was performed by Aspin-Welch t-test. Since the uniformity of variance was not verified in testing for significant differences of the respective test-substance administered groups relative to the positive control group, assessment was performed by Dunnett's multiple comparison test after Kruskal-Wallis testing, using non-parametric procedures. Differences were considered to be statistically significant at p values of less than 0.05.", "key": {"[1]": {"conditions": "Day 10 post-adjuvant, 100 mg/kg intraperitoneal from day 10"}, "[2]": {"conditions": "Day 14 post-adjuvant, 10 mg/kg intraperitoneal from day 10"}, "[3]": {"conditions": "Day 14 post-adjuvant, 100 mg/kg intraperitoneal from day 10"}, "[4]": {"conditions": "Day 17 post-adjuvant, 10 mg/kg intraperitoneal from day 10"}, "[5]": {"conditions": "Day 17 post-adjuvant, 100 mg/kg intraperitoneal from day 10"}, "[6]": {"conditions": "Day 21 post-adjuvant, 10 mg/kg intraperitoneal from day 10"}, "[7]": {"conditions": "Day 21 post-adjuvant, 100 mg/kg intraperitoneal from day 10"}}, "note": "At least one peptide structure holds a part that was inferred or is arguable (an end, a ring closure or a residue). Non-standard residues stand in square brackets, D forms with d. Residues, ends and D or L forms follow the SMILES beside them.", "data": [{"smiles": "CC(C)C[C@@H](NC(=O)CNC(=O)[C@H]1CCCN1)C(=O)N[C@H](CCC(=O)O)C(=O)N[C@H](CCCCN)C(=O)N[C@H](Cc1ccccc1)C(=O)O", "note": "[Test substance VII-2, dPGdLdEdKdF] (H-[dP]G[dL][dE][dK][dF]-OH; N-terminus and C-terminus assumed)", "values": [{"measurement": "Scores of swelling in the instep (left hind-limb)", "setting": "[1]", "result": "0.0 ± 0.0"}, {"measurement": "Scores of swelling in the instep (right hind-limb)", "setting": "[1]", "result": 1.0}, {"measurement": "Total scores (left hind-limb)", "setting": "[1]", "result": "0.6 ± 0.2"}, {"measurement": "Total scores (right hind-limb)", "setting": "[1]", "result": "3.0 ± 0.0"}, {"measurement": "Percent increase in foot volume relative to day 10 post-adjuvant (left hind-limb)", "setting": "[2]", "result": "−4.0 ± 1.7", "unit": "%"}, {"measurement": "Percent increase in foot volume relative to day 10 post-adjuvant (right hind-limb)", "setting": "[2]", "result": "−6.4 ± 1.5", "unit": "%"}, {"measurement": "Percent increase in foot volume relative to pre-adjuvant (left hind-limb)", "setting": "[2]", "result": "15.70 ± 0.9", "unit": "%"}, {"measurement": "Percent increase in foot volume relative to pre-adjuvant (right hind-limb)", "setting": "[2]", "result": "31.44 ± 7.2", "unit": "%"}, {"measurement": "Redness scores (left hind-limb)", "setting": "[2]", "result": "0.0 ± 0.0"}, {"measurement": "Redness scores (right hind-limb)", "setting": "[2]", "result": "1.0 ± 0.0"}, {"measurement": "Scores of swelling in knuckle joints (left hind-limb)", "setting": "[2]", "result": "0.0 ± 0.0"}, {"measurement": "Scores of swelling in knuckle joints (right hind-limb)", "setting": "[2]", "result": "0.8 ± 0.2"}, {"measurement": "Scores of swelling in the instep (left hind-limb)", "setting": "[2]", "result": "0.0 ± 0.0"}, {"measurement": "Scores of swelling in the instep (right hind-limb)", "setting": "[2]", "result": "0.8 ± 0.2"}, {"measurement": "Total scores (left hind-limb)", "setting": "[2]", "result": "0.0 ± 0.0"}, {"measurement": "Total scores (right hind-limb)", "setting": "[2]", "result": "2.6 ± 0.2"}, {"measurement": "Percent increase in foot volume relative to day 10 post-adjuvant (left hind-limb)", "setting": "[3]", "result": "−5.0 ± 0.4", "unit": "%"}, {"measurement": "Percent increase in foot volume relative to day 10 post-adjuvant (right hind-limb)", "setting": "[3]", "result": "−6.6 ± 1.4", "unit": "%"}, {"measurement": "Percent increase in foot volume relative to pre-adjuvant (left hind-limb)", "setting": "[3]", "result": "15.08 ± 2.8", "unit": "%"}, {"measurement": "Percent increase in foot volume relative to pre-adjuvant (right hind-limb)", "setting": "[3]", "result": "23.82 ± 2.3", "unit": "%"}, {"measurement": "Redness scores (left hind-limb)", "setting": "[3]", "result": "0.0 ± 0.0"}, {"measurement": "Redness scores (right hind-limb)", "setting": "[3]", "result": "1.0 ± 0.0"}, {"measurement": "Scores of swelling in knuckle joints (left hind-limb)", "setting": "[3]", "result": "0.4 ± 0.2"}, {"measurement": "Scores of swelling in knuckle joints (right hind-limb)", "setting": "[3]", "result": "1.0 ± 0.0"}, {"measurement": "Scores of swelling in the instep (left hind-limb)", "setting": "[3]", "result": "0.0 ± 0.0"}, {"measurement": "Total scores (left hind-limb)", "setting": "[3]", "result": "0.4 ± 0.2"}, {"measurement": "Total scores (right hind-limb)", "setting": "[3]", "result": "2.6 ± 0.2"}, {"measurement": "Percent increase in foot volume relative to day 10 post-adjuvant (left hind-limb)", "setting": "[4]", "result": "−7.2 ± 1.3", "unit": "%"}, {"measurement": "Percent increase in foot volume relative to day 10 post-adjuvant (right hind-limb)", "setting": "[4]", "result": "−9.9 ± 1.4", "unit": "%"}, {"measurement": "Percent increase in foot volume relative to pre-adjuvant (left hind-limb)", "setting": "[4]", "result": "11.93 ± 0.4", "unit": "%"}, {"measurement": "Percent increase in foot volume relative to pre-adjuvant (right hind-limb)", "setting": "[4]", "result": "26.34 ± 5.6", "unit": "%"}, {"measurement": "Redness scores (left hind-limb)", "setting": "[4]", "result": "0.0 ± 0.0"}, {"measurement": "Redness scores (right hind-limb)", "setting": "[4]", "result": "1.0 ± 0.0"}, {"measurement": "Scores of swelling in knuckle joints (left hind-limb)", "setting": "[4]", "result": "0.0 ± 0.0"}, {"measurement": "Scores of swelling in knuckle joints (right hind-limb)", "setting": "[4]", "result": "0.4 ± 0.2"}, {"measurement": "Scores of swelling in the instep (left hind-limb)", "setting": "[4]", "result": "0.0 ± 0.0"}, {"measurement": "Scores of swelling in the instep (right hind-limb)", "setting": "[4]", "result": "0.6 ± 0.2"}, {"measurement": "Total scores (left hind-limb)", "setting": "[4]", "result": "0.0 ± 0.0"}, {"measurement": "Total scores (right hind-limb)", "setting": "[4]", "result": "2.0 ± 0.4"}, {"measurement": "Percent increase in foot volume relative to day 10 post-adjuvant (left hind-limb)", "setting": "[5]", "result": "−7.0 ± 1.9", "unit": "%"}, {"measurement": "Percent increase in foot volume relative to day 10 post-adjuvant (right hind-limb)", "setting": "[5]", "result": "−6.3 ± 1.7", "unit": "%"}, {"measurement": "Percent increase in foot volume relative to pre-adjuvant (left hind-limb)", "setting": "[5]", "result": "12.49 ± 2.3", "unit": "%"}, {"measurement": "Percent increase in foot volume relative to pre-adjuvant (right hind-limb)", "setting": "[5]", "result": "24.25 ± 3.3", "unit": "%"}, {"measurement": "Redness scores (left hind-limb)", "setting": "[5]", "result": "0.2 ± 0.2"}, {"measurement": "Redness scores (right hind-limb)", "setting": "[5]", "result": "1.0 ± 0.3"}, {"measurement": "Scores of swelling in knuckle joints (left hind-limb)", "setting": "[5]", "result": "0.0 ± 0.0"}, {"measurement": "Scores of swelling in knuckle joints (right hind-limb)", "setting": "[5]", "result": "0.4 ± 0.2"}, {"measurement": "Scores of swelling in the instep (left hind-limb)", "setting": "[5]", "result": "0.0 ± 0.0"}, {"measurement": "Total scores (left hind-limb)", "setting": "[5]", "result": "0.2 ± 0.2"}, {"measurement": "Total scores (right hind-limb)", "setting": "[5]", "result": "2.2 ± 0.6"}, {"measurement": "Percent increase in foot volume relative to day 10 post-adjuvant (left hind-limb)", "setting": "[6]", "result": "−6.8 ± 1.5", "unit": "%"}, {"measurement": "Percent increase in foot volume relative to day 10 post-adjuvant (right hind-limb)", "setting": "[6]", "result": "−9.7 ± 2.3", "unit": "%"}, {"measurement": "Percent increase in foot volume relative to pre-adjuvant (left hind-limb)", "setting": "[6]", "result": "12.36 ± 0.8", "unit": "%"}, {"measurement": "Percent increase in foot volume relative to pre-adjuvant (right hind-limb)", "setting": "[6]", "result": "26.57 ± 5.9", "unit": "%"}, {"measurement": "Redness scores (left hind-limb)", "setting": "[6]", "result": "0.0 ± 0.0"}, {"measurement": "Redness scores (right hind-limb)", "setting": "[6]", "result": "0.6 ± 0.2"}, {"measurement": "Scores of swelling in knuckle joints (left hind-limb)", "setting": "[6]", "result": "0.0 ± 0.0"}, {"measurement": "Scores of swelling in knuckle joints (right hind-limb)", "setting": "[6]", "result": "0.2 ± 0.2"}, {"measurement": "Scores of swelling in the instep (left hind-limb)", "setting": "[6]", "result": "0.0 ± 0.0"}, {"measurement": "Scores of swelling in the instep (right hind-limb)", "setting": "[6]", "result": "0.8 ± 0.2"}, {"measurement": "Total scores (left hind-limb)", "setting": "[6]", "result": "0.0 ± 0.0"}, {"measurement": "Total scores (right hind-limb)", "setting": "[6]", "result": "1.6 ± 0.2"}, {"measurement": "Percent increase in foot volume relative to day 10 post-adjuvant (left hind-limb)", "setting": "[7]", "result": "−7.0 ± 1.9", "unit": "%"}, {"measurement": "Percent increase in foot volume relative to day 10 post-adjuvant (right hind-limb)", "setting": "[7]", "result": "−4.8 ± 2.5", "unit": "%"}, {"measurement": "Percent increase in foot volume relative to pre-adjuvant (left hind-limb)", "setting": "[7]", "result": "12.50 ± 2.0", "unit": "%"}, {"measurement": "Percent increase in foot volume relative to pre-adjuvant (right hind-limb)", "setting": "[7]", "result": "26.31 ± 4.2", "unit": "%"}, {"measurement": "Redness scores (left hind-limb)", "setting": "[7]", "result": "0.2 ± 0.2"}, {"measurement": "Redness scores (right hind-limb)", "setting": "[7]", "result": "1.0 ± 0.0"}, {"measurement": "Scores of swelling in knuckle joints (left hind-limb)", "setting": "[7]", "result": "0.0 ± 0.0"}, {"measurement": "Scores of swelling in knuckle joints (right hind-limb)", "setting": "[7]", "result": "0.2 ± 0.2"}, {"measurement": "Scores of swelling in the instep (left hind-limb)", "setting": "[7]", "result": "0.2 ± 0.2"}, {"measurement": "Total scores (left hind-limb)", "setting": "[7]", "result": "0.4 ± 0.4"}, {"measurement": "Total scores (right hind-limb)", "setting": "[7]", "result": "2.2 ± 0.4"}]}]}
